# Measurements from the supplement of paper PMC5949888.
# Most values lie at the floor of the assay. Slopes are relative: functional sequences can read slightly below zero.
# System: Saccharomyces cerevisiae PS128 hsf1 delta, HSF1(1-493) fusion
# Test: growth estimate (transactivation domain function in HSF1 fusion, heat-shock survival) (a.u. (slope of normalised read count over time)); higher = stronger growth at 37°C, i.e. more transactivation activity
# Details: library: random library
# Procedure: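 Random 60-nt DNA library encoding peptides of up to 20 aa, fused to the C-terminus of yeast HSF1 residues 1-493 (C-terminal TAD deleted) and expressed from the native HSF1 promoter on a CEN plasmid in hsf1-deleted S. cerevisiae PS128. Cells were selected at 37°C on -trp 5-FOA plates for 0, 2, 4, 6 and 8 days and amplicons were sequenced. Growth estimate is the slope of a robust linear fit of total-sum-normalised read counts (normalised to the first time point) over time, using at least 2 replicates. Sequences are classed functional (TAD activity) above a threshold of -0.13, set from stop-codon control sequences.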
row,Substance,growth estimate
1,ANTWPGFHGRPCRERCYSRC,< -0.25
2,RYIALEE,< -0.25
3,SVINVSTWSRKW,< -0.25
4,TTCLS,< -0.25
5,FLDTSARIVSLSSLLSASLR,< -0.25
6,RGGATAPELVLEMQSSSLGD,< -0.25
7,GRSGQVHCCPGVYWQRICTA,< -0.25
8,PGLGSGEMSDRRTNP,< -0.25
9,GHTAVPSRPWGQSGLALE,< -0.25
10,TSVQVI,< -0.25
11,PSPL,< -0.25
12,STRVGRWRQARRFRSHAVPG,< -0.25
13,FPRWLGGVVYHAAV,< -0.25
14,TLQRHLRLTSVLSGVSVNFR,< -0.25
15,MCIMRT,< -0.25
16,NQC,< -0.25
17,QRRPGNYVRLSQSS,-0.154
18,SGQLGRDWYSGLIDS,< -0.25
19,GYAWEEK,< -0.25
20,LATRCNREGGE,< -0.25
21,PLTSCAVIKNSTESAERART,< -0.25
22,PTVVKTVEMEARLYVIAYVS,< -0.25
23,RGSDGGALATKEG,< -0.25
24,VLGIGIRPSFGTATVHSRLR,< -0.25
25,VRRISLWVP,< -0.25
26,KRIFREHLLSWLRPAGG,< -0.25

row,Substance,growth estimate
1,CTRVKLSQSQGLTPTGLQGT,< -0.25
2,SDWTTCSTRGNLGVGTA,< -0.25
3,ISRGKARVHLCYCTYNPSDA,< -0.25
4,SAEGSV,< -0.25
5,SGGVRLTPLVRRWHSGTSSA,< -0.25
6,TAYLSPEPDTKVASLRQWNR,< -0.25
7,ETPHHEDSCGSRLPLIAGVG,< -0.25
8,RLWVDGQDGKQVTWTPNLRI,< -0.25
9,LVATITVFGPQET,< -0.25
10,PDAHQTDLRHRRMRSPAPTR,< -0.25
11,AIRARVFLPT,< -0.25
12,SGENYKSEIDKPTTFVDLCR,< -0.25
13,RERE,< -0.25
14,IDLA,-0.184
15,YIIGAAFVTWIAGPLLPMNR,< -0.25
16,TNADIDLVTNLSWPEAA,-0.243
17,LFLKERED,< -0.25
18,YKAVKPTVPNLGTRAHSCLT,< -0.25
19,PILSPKVELAGVLHIVVGVT,< -0.25
20,NDKY,< -0.25
21,RHRSGVTEALISDVPRGPGP,< -0.25
22,NCGTVSESRPRKILSRISHN,< -0.25
23,SGSSRLRSATRGESTR,< -0.25
24,KCYSHRKKGSRGTLPQRTP,< -0.25
25,QRHEKACRDQPCTRSAGLVP,< -0.25
26,CSHFLIQQILDTAS,< -0.25

# 2 consecutive records already listed, for reference:
row,Substance,growth estimate
21,RHRSGVTEALISDVPRGPGP,< -0.25
22,NCGTVSESRPRKILSRISHN,< -0.25

# (cont.)

row,Substance,growth estimate
1,CTRVRGTRLSNVNEVSAISL,< -0.25
2,VRLARLSYGTGCIHYSCLCC,< -0.25
3,ASAGTRIVGTPCVQLARTPL,< -0.25
4,GLIQPVCYAINTRASTGLKS,< -0.25
5,MPVDPILKKHRF,< -0.25
6,LTLHL,< -0.25
7,ERDP,< -0.25
8,PAESAEGNLGGSTWHRAHIG,< -0.25
9,VWDQIHVLVLVVLVDPDG,< -0.25
10,RPGQRPNQSKTLLDHRC,< -0.25
11,VCIESNWSSLLWVKTLFGGS,< -0.25
12,YRDHVERGRRGAYTLYTQLT,< -0.25
13,ERRLHSLRSRIGWTIEPI,< -0.25
14,QLH,< -0.25
15,HIVSKGVVGSS,< -0.25
16,YGGERLEVEGYRGLYLDGAN,< -0.25
17,ALYTHSGRTRRWRGRCECRM,-0.219
18,GPH,< -0.25
19,VWIYGQ,-0.246
20,RTIRCGSFHSKELRCLYKHR,< -0.25
21,EREGNVIRGLPAEERV,< -0.25
22,MGHAALRECSTLIIPTLQST,< -0.25
23,AFFSYYYMGGENH,< -0.25
24,LGAVDSGDRTTRYKIGVIRR,-0.174
25,TENR,< -0.25
26,PLGER,< -0.25

# Part of the list above, reformatted:
row | Substance | growth estimate
4 | GLIQPVCYAINTRASTGLKS | < -0.25
5 | MPVDPILKKHRF | < -0.25

# Next part.

row,Substance,growth estimate
1,SFYASRSVAIVRRHARAQRR,-0.248
2,SQI,-0.246
3,GDDFGYTHEARLTPSTPPIL,< -0.25
4,DIQLHVGICWLHGPILTCTL,< -0.25
5,VSIAFSTAGDRECQRHNE,< -0.25
6,RTRRESGHLEAQSPRSSHYS,< -0.25
7,LMRNWPGLNILTL,< -0.25
8,LGFAFAHVKRESRVYSGLES,< -0.25
9,DASHVHSAHPGT,< -0.25
10,SRAPMQPVISIVCTLHDPGV,< -0.25
11,HLATRIAYLVLVRKRRLRTS,< -0.25
12,VPIYLSLGRYQVSGRSRSRS,< -0.25
13,MLSHGTAQDV,< -0.25
14,VRSKYDKCHVRRHVHLSKAP,< -0.25
15,VQIRLEVRGISRGFECGSVP,< -0.25
16,LGKSPWFI,< -0.25
17,VARRGDYREIGGRKRSKGFA,< -0.25
18,RSGQGVQGTDTLRMDVLRAY,< -0.25
19,TVWRSLASLSLFMTRPSLTT,< -0.25
20,PKEWSAKVRDSVAALCRGLQ,< -0.25
21,RQTIIIS,< -0.25
22,GCTLIGGSRLRANSSVRWIG,< -0.25
23,SCWRGIRHRALFWFKYTASP,< -0.25
24,NIGLLGPGEWYMPRAFRAAL,< -0.25
25,TIRCVGSTSELRLSQRDAFI,< -0.25
26,CVFWELGVRLASSQTYAMDP,< -0.25

row,Substance,growth estimate
1,LFLRCDNLVVSFKTPPTLGM,< -0.25
2,GAVIHPRTDTRTGSAPPLPD,< -0.25
3,QTGIAH,< -0.25
4,GGILPGVQLIGEEGRGIYRP,< -0.25
5,ASVCSV,< -0.25
6,YWGSSPLIH,< -0.25
7,ESATASHSQ,< -0.25
8,LTLGMQ,< -0.25
9,IGSQHQRGRDEPNSEPF,< -0.25
10,QNEVATNSEYQ,< -0.25
11,FKCRIEYKRSRFCVKV,< -0.25
12,LSTASREDSQANGWV,< -0.25
13,PVTLNERGYLRALLVISVPE,< -0.25
14,SRKLVYAIGCVGTKFGTPRG,< -0.25
15,IEF,< -0.25
16,ARQ,< -0.25
17,PLEELAWTPPSSTRASLTFM,< -0.25
18,PCGVSVTKPVSCKPAGECAL,< -0.25
19,CSLQA,< -0.25
20,VGL,< -0.25
21,VQIPLVILVRDLLGPVTWNA,< -0.25
22,YSSRM,< -0.25
23,VKYFVLNANPNFRKLVVEPS,< -0.25
24,SEFQTSHKLDSVRLRH,< -0.25
25,VVNTQHSGVN,< -0.25
26,PIHRAAEIVTVSGLRASKNA,< -0.25

row,Substance,growth estimate
1,GDEYQKFKFGY,< -0.25
2,LAPDRKHRIM,< -0.25
3,REGWVL,< -0.25
4,YSLVRFRSIKKTCRFDGKSE,< -0.25
5,SCQPFPSQIVRDRDHQGVRD,< -0.25
6,PMISRARSHRQNILSDLNKS,-0.227
7,DGRNEFAQKGF,< -0.25
8,GTVHVPYHRISWDTRS,< -0.25
9,GTIFWWFRGSGESATPSLDN,0.116
10,RLMRSRVD,< -0.25
11,RDGKGSGLTAW,< -0.25
12,EPFRLKPLGRSFMFRVDQSS,< -0.25
13,QSGSAKA,< -0.25
14,ARTPGCRTSTVMDWIDSQDA,< -0.25
15,ATPHAVGTV,< -0.25
16,THSS,< -0.25
17,ARE,< -0.25
18,RATSVQSFYQSSRL,< -0.25
19,TPPS,< -0.25
20,VRVNVACPRPVTNSWVRGSK,< -0.253
21,YYGSEGLGWGLEERISFIVA,< -0.25
